Some of the results follow. Shown are side measurements of this screen, not its main read-out; they come without a call. Most of these compounds were active or inconclusive in the main read-out, so they are no random draw. Words in brackets tell the shape of the fitted curve; partial curves, single points and poor fits give uncertain potencies.
Assay: qHTS Assay for Lipid Storage Modulators in Drosophila S3 Cells;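 as to cell number change: cells counted by Cell Tracker Red CMTPX staining in the red channel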
Conditions: BODIPY lipid droplet fluorescence, 18-24 h; for cell number change: measured here: cell count max response, cells fed with added oleic acid
Procedure, shortened: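 Laser-scanning cytometry quantifies lipid droplet accumulation (500–530 nm total intensity; droplet/cell object ratio) in oleic acid-fed (400 uM added) Drosophila S3 cells treated with a concentration series. 20 uM Triacsin C defined 100% inhibition.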

[1] = measured here: cell number channel AC50, cells fed with added oleic acid
[2] = measured here: lipid fluorescence (Fed channel) AC50, cells fed with added oleic acid

Row | SMILES | cell number change | AC50 [1] | AC50 [2]
1 | O=C(c1ccc(S(=O)(=O)Nc2ccccc2)cc1)N1CCC1 | -50% | 2.06 µM [falling, partial curve] | –
2 | O=C(c1ccc(=O)[nH]c1)N1CCN(S(=O)(=O)c2ccc(Cl)cc2)CC1 | 19.4% | 0.146 µM [rising, full curve, poor fit] | 11.6 µM [rising, single point]
3 | COc1ccc(-c2csc(N3CCN(c4cc(C)nc5ccccc45)CC3)n2)cc1OC | -6.99% | – | 0.82 µM [rising, full curve, poor fit]
4 | CC1CCN(c2c([N+](=O)[O-])c(=O)n(-c3ccccc3)c3ccccc23)CC1 | – | – | 0.00731 µM [falling, full curve, poor fit]
5 | CCCCn1cnc2cc(NCc3ccncc3)ccc21 | 98% | 9.2 µM [rising, partial curve, poor fit] | 8.2 µM [rising, partial curve]
6 | O=C1OC(/C(=C\Nc2ccc(F)cc2F)[N+](=O)[O-])c2ccccc21 (stereo not drawn) | -13.6% | – | 13 µM [falling, single point]
7 | Cc1nn(C)c(C(=O)NC(=S)Nc2ccccc2O)c1Cl | -16.3% | – | 9.2 µM [falling, partial curve]
8 | CCn1cc(CN2CCN(C)C(CCO)C2)c2ccccc21 (stereo not drawn) | 23.6% | – | 29.1 µM [rising, single point]
9 | Cc1cccc(C)c1NC(=O)N1CCC(n2c(=O)[nH]c3ccccc32)CC1 | 1.84% | – | 0.058 µM [rising, full curve, poor fit]
10 | CCN(CC)c1nc(OCCNC(=O)Nc2ccccc2)nc(N(CC)CC)n1 | -31.7% | – | 0.82 µM [rising, full curve, poor fit]
11 | COCC(C)NCc1ccc(C)cc1C (stereo not drawn) | 2.5% | – | 0.103 µM [falling, full curve, poor fit]
12 | CCOc1ccccc1C(=O)NC1CC2CCCC(C1)N2Cc1nnnn1Cc1ccco1 (stereo not drawn) | -11.5% | – | –
13 | Fc1ccccc1Cc1noc(CN2CCC(OCc3cccnc3)CC2)n1 | 6.02% | – | 0.651 µM [falling, full curve]
14 | CCN(CC)CCNc1nc(-c2ccc(OC(F)F)cc2)c(C)s1 | – | 0.0291 µM [rising, full curve, poor fit] | 0.116 µM [rising, partial curve, poor fit]
15 | CCN(CC)S(=O)(=O)c1cc(NC(=O)CN2CCN(c3ccccn3)CC2)ccc1C | -46.1% | 5.8 µM [falling, partial curve] | 13 µM [falling, partial curve]
16 | Cc1c(Cl)cccc1NC(=S)N1CCN(S(=O)(=O)c2cccs2)CC1 | 6.12% | – | 4.61 µM [rising, single point]
17 | O=C(Cn1ncc2c([nH]c3ccccc32)c1=O)Nc1cccnc1 | 25.2% | – | 2.91 µM [falling, single point]
18 | Cc1ccc(-c2ccc(/C=N/NC(=S)Nc3ccccc3)o2)cc1[N+](=O)[O-] | -8.91% | – | 4.61 µM [rising, partial curve]
19 | O=C(CCC(=O)N1CCOc2ccc(Cl)cc21)N1CCN(c2ccccn2)CC1 | 19% | – | –
20 | O=C(CCCn1c(=S)[nH]c2ccc(Br)cc2c1=O)N1CCN(c2ccccn2)CC1 | -29.9% | – | 29.1 µM [falling, single point]
21 | CCC(C)c1ccc(C(C)NC(=S)NC2CCCCC2)cc1 (stereo not drawn) | 23% | – | –
22 | Cn1c2c(c3ccccc31)CCN1CCC[C@]21c1ccccc1 | -28% | – | 16.4 µM [falling, single point]
23 | O=C(CN1C(=O)NC2(CCOc3ccccc32)C1=O)Nc1ccc(F)c(F)c1F (stereo not drawn) | 61.2% | 29.1 µM [rising, single point] | 29.1 µM [rising, single point]
24 | ClCc1csc(-c2ccccc2Cl)n1 | -33% | 0.164 µM [falling, full curve, poor fit] | 0.651 µM [falling, full curve, poor fit]
25 | CCc1ccc(OCC(=O)NC(NC(=S)Nc2ccccc2C)C(Cl)(Cl)Cl)cc1 (stereo not drawn) | -18.9% | – | 16.4 µM [falling, partial curve]
26 | COCc1cc(CNC(=O)C2CCC(=O)N(Cc3ccccc3F)C2)[nH]n1 (stereo not drawn) | -17.7% | – | –
27 | CC(C(N)=O)N1C(=O)NC2(CCCc3ccccc32)C1=O (stereo not drawn) | -5.86% | – | 0.58 µM [falling, single point]
28 | NC(=S)N/N=C/c1ccc(-c2cc(Cl)c(Cl)cc2Cl)o1 | 8.48% | – | 29.1 µM [falling, single point]
29 | COCCn1c(-c2ccccc2)cnc1SCC(=O)Nc1cccc2ccccc12 | -10.4% | – | 10.3 µM [falling, partial curve, poor fit]

Numbers 28 to 29 of the list above:
Row | SMILES | cell number change | AC50 [1] | AC50 [2]
28 | NC(=S)N/N=C/c1ccc(-c2cc(Cl)c(Cl)cc2Cl)o1 | 8.48% | – | 29.1 µM [falling, single point]
29 | COCCn1c(-c2ccccc2)cnc1SCC(=O)Nc1cccc2ccccc12 | -10.4% | – | 10.3 µM [falling, partial curve, poor fit]

Reference: PubChem BioAssay AID2685 (National Center for Advancing Translational Sciences (NCATS), 2010)
